The whole screen tested about 360,000 compounds, of which about 9,100 (2.5%) were called active. The shares of active, inactive and inconclusive entries below differ from those in the screen. Rule as the data show it: active = max response below about -50%; inconclusive = no clear call, values can overlap the other calls; inactive = above that.
Molecular target: D(3) dopamine receptor (Homo sapiens) (UniProt P35462)
Experiment: qHTS of D3 Dopamine Receptor Antagonist: qHTS
Settings: D3R cells, DiscoveRx beta-arrestin luminescence, antagonist mode; stronger effect = lower value
In short: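 Cells plated overnight at 1500 cells/well, then exposed to library compounds with dopamine controls for 90 minutes at 37 degrees C. DiscoveRx reagent added for 30–60 minutes at room temperature; luminescence read, quantitative HTS format.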
% is scaled to controls: 0 for no effect and ±100 for the full control effect.

Protein sequences, listed by entry. Tags and fused reporters are not part of them.
UniProt P35462, whole entry, looked up: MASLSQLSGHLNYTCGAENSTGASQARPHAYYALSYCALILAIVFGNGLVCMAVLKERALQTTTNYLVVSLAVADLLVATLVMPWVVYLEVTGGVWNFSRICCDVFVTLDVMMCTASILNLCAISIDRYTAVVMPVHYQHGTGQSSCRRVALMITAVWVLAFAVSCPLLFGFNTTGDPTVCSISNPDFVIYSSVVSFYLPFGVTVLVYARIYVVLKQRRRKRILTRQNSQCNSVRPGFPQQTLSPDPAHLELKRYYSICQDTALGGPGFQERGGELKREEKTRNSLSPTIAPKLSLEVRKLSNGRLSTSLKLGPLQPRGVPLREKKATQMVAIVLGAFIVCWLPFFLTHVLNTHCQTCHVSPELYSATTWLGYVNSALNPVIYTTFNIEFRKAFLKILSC

Structure (SMILES) | max response, negative = inhibition
Cc1ccc2cc(CN(CCc3ccccc3)C(=S)NCCCN(C)C)c(=O)[nH]c2c1 | inconclusive: -42%
COc1ccc(C(CNC(=O)C(C)Oc2ccc(Br)cc2)N2CCOCC2)cc1 (centres undefined) | active: -69.4%
COc1ccccc1N1CCN(CCCN2C(=O)C3CCCN3C2=O)CC1 (centres undefined) | active: -82.9%
CC(=NNc1ccc([N+](=O)[O-])cn1)c1ccc(N)cc1 | inconclusive: -37.1%
CCCCn1c(=N)n(CC(=O)C(C)(C)C)c2ccccc21 | inconclusive: -31.8%
O=C(CN1C(=O)S/C(=C/C=C/c2ccccc2)C1=O)Nc1ccc(C(=O)O)cc1 | inactive: 4.07%
COc1cc([N+](=O)[O-])ccc1NC(=S)NNC(=O)c1ccc2c(c1)OCO2 | inconclusive: -32.3%
O=C(COC(=O)c1cccc(S(=O)(=O)N2CCc3ccccc32)c1)NCc1ccco1 | inconclusive: -43.5%
CC(=O)Nc1ccc(CN2CCCCCCC2)cc1 | inconclusive: -34.3%
Cc1cc(=O)[nH]c(N/N=C/c2c(O)n(-c3ccccc3)c(=O)c3ccccc23)n1 | inconclusive: -33.7%
CCN(CC(=O)NCc1ccc(Cl)cc1)C(=O)c1cc(OC)cc(OC)c1 | inactive: -5.01%
Cc1ccc(S(=O)(=O)N2C(=O)CCC2C(=O)Nc2ccc3c(c2)OCCO3)cc1 (centres undefined) | active: -65.5%
c1ccc(-c2noc(-c3ccncc3)n2)nc1 | inactive: 7.22%
CCC(=O)Nc1cc2[nH]c(=O)cc(C)c2cc1C | inactive: 5.53%
CN1C2C=C(N(CCc3c[nH]c4ccccc34)C(=O)c3ccc(Cl)cc3)CC1CC2 (centres undefined) | inconclusive: -42.7%
Cc1ccc(CN2CC(N3CCN(C4CCN(C)CC4)CC3)CS2(=O)=O)cc1 (centres undefined) | inconclusive: -35.8%
COc1ccc(-c2coc3c(C(=O)NCc4cccs4)cccc23)c(C)c1 | inconclusive: -33.9%
COc1cc(/C=C2\C(=O)NN(c3ccccc3)C2=O)cc([N+](=O)[O-])c1O | inconclusive: -37.6%
Nc1nonc1-n1nnc(C(=O)N/N=C\c2ccncc2)c1CN1CCCCC1 | inconclusive: -40.5%
CC1(C(=O)NCCC(F)(F)F)Cc2c(-c3cccc(C(N)=O)c3)ccnc2O1 (centres undefined) | active: -59.3%
CCC(C)N1CCC2(CC1)N=c1c(c3c4c5c(C)c(O)c3c(O)c1=NC(=O)C(C)=CC=C[C@H](C)[C@H](O)[C@@H](C)[C@@H](O)[C@@H](C)[C@H](OC(C)=O)[C@H](C)[C@@H](OC)C=CO[C@@](C)(O5)C4=O)N2 (some centres undefined) | inactive: -13.5%

Structure (SMILES) | max response, negative = inhibition
Cc1csc(NC(=O)C(NS(=O)(=O)c2ccc(Br)s2)c2ccccc2)n1 (centres undefined) | inconclusive: -44.2%
Cc1ccc(-c2cc(C(=O)Nc3c(C)n(C)n(-c4ccccc4)c3=O)c3ccccc3n2)cc1 | inactive: 25%
CC(=O)c1cccc(OCc2cc(C(=O)NC3CCN(Cc4ccccc4)CC3)no2)c1 | inconclusive: -37.4%
CC1=C(C(=O)N2CCOCC2)CC(CC(=O)NCC2CCCCC2)C(=O)N1Cc1ccc(C(C)(C)C)cc1 (centres undefined) | inactive: 24.9%
CC1(C)CC(=O)C(C2(O)C(=O)Nc3ccccc32)CO1 (centres undefined) | inactive: -17.6%
CSc1nc(N)c2c3c(sc2n1)CN(C)CC3 | active: -52.2%
CCOc1cc(/C=N/NC(=O)CN2CCCCC2)ccc1O | inconclusive: -41.2%
O=C(NNC(=S)Nc1ccccc1)c1ccncc1 | inconclusive: -35.5%
N=C1SCC(=O)N1c1ncc(Cc2ccc(F)cc2)s1 | inconclusive: -41.1%
Cc1cccc(NC(=O)/C=C/c2ccc([N+](=O)[O-])s2)c1 | inconclusive: -38.3%
O=C(NCC(=O)N(Cc1ccco1)C(C(=O)NC1CCCC1)c1cccnc1)c1ccco1 (centres undefined) | inconclusive: -34.7%
CN(C)CCn1nnnc1SCC1=C(C(=O)O)N2C(=O)[C@@H](NC(=O)Cc3csc(N)n3)[C@H]2SC1 | inconclusive: -30.3%
CCN(CC)c1ccc(N=Nc2ncn[nH]2)cc1 | inconclusive: -31.1%
CCCCN(C(=O)C(C)Oc1cccc(Cl)c1)c1c(N)n(CCC)c(=O)[nH]c1=O (centres undefined) | inconclusive: -36%
Cc1ccc(/C=C2/SC(=S)N(c3ccc(S(=O)(=O)Nc4nccs4)cc3)C2=O)cc1 | inconclusive: -48.9%
Cc1ccc(CN2CCN(/N=C/c3ccc(C)s3)CC2)c(C)c1 | inactive: -14%
CCOC(=O)Nc1ccc2c(c1)N(C(=O)N(C)C)c1ccccc1CC2 | inconclusive: -32.9%
O=C(c1[nH]nc2c1CCc1ccccc1-2)N1CCN(Cc2ccc3c(c2)OCO3)CC1 | inconclusive: -38.2%
COC(=O)C[C@H]1c2cc(F)ccc2S(=O)(=O)N1c1ccccc1 | inactive: 0%
Cc1ccc(OCC(O)CN2CCN(CC(O)COc3ccc(C)cc3)CC2)cc1 (centres undefined) | inconclusive: -36.4%
O=C(NCCCN1CCOCC1)c1cc(S(=O)(=O)N2CCN(c3ccccc3)CC2)ccc1Cl | inactive: 0.598%

Some values from above.
In max response, negative = inhibition, CSc1nc(N)c2c3c(sc2n1)CN(C)CC3 is entered as active: -52.2%
In max response, negative = inhibition, CCN(CC)c1ccc(N=Nc2ncn[nH]2)cc1 is entered as inconclusive: -31.1%
In max response, negative = inhibition, O=C(c1[nH]nc2c1CCc1ccccc1-2)N1CCN(Cc2ccc3c(c2)OCO3)CC1 is entered as inconclusive: -38.2%
In max response, negative = inhibition, CCOc1cc(/C=N/NC(=O)CN2CCCCC2)ccc1O is entered as inconclusive: -41.2%
In max response, negative = inhibition, CC1=C(C(=O)N2CCOCC2)CC(CC(=O)NCC2CCCCC2)C(=O)N1Cc1ccc(C(C)(C)C)cc1 (centres undefined) is entered as inactive: 24.9%
In max response, negative = inhibition, Cc1csc(NC(=O)C(NS(=O)(=O)c2ccc(Br)s2)c2ccccc2)n1 (centres undefined) is entered as inconclusive: -44.2%

Remaining list, next part:

Structure (SMILES) | max response, negative = inhibition
O=[N+]([O-])c1ccccc1OCCN1CCCC1 | active: -61.2%
COc1cccc(C(=O)Oc2cc3c4c(c2)C(C)=CC(C)(C)N4C(=O)C3=O)c1 | inconclusive: -31.9%
CCOc1ccc(C(=O)C(CCC(CN(C)C)C(=O)c2ccc(OCC)cc2)CN(C)C)cc1 (centres undefined) | active: -84.9%
O=C(c1cc2ccccc2o1)c1nc2c(n1O)CCCCC2 | active: -79.1%
COc1ccccc1OCC(=O)NCC(c1cccs1)N1CCOCC1 (centres undefined) | inconclusive: -32.2%
COC(=O)c1n[nH]n(-c2cc(Cl)cc(Cl)c2)c1=O | inactive: 1.1%
O=c1cc(-c2ccc(O)c(O)c2)oc2c1ccc1ccccc12 | inactive: -7.9%
CN[C@H](C)C(=O)NC[C@H]1O[C@@H](n2cc(C)c(=O)[nH]c2=O)C[C@@H]1O | inconclusive: -32.6%
CC(C)OCCCNc1ncnc2c1cnn2-c1ccccc1 | inactive: 12.9%
O=C(c1ccc(Cl)c([N+](=O)[O-])c1)N(Cc1ccc(Cl)cc1)C1CCS(=O)(=O)C1 (centres undefined) | inconclusive: -32.8%
C[C@H](CO)N1C[C@H](C)[C@@H](CN(C)Cc2cccnc2)OCc2cnnn2CCCC1=O | inconclusive: -30.6%
Cc1cc(/C=N/NC(=O)c2ccsc2)c(C)n1-c1cnccn1 | inconclusive: -47.7%
O=[N+]([O-])c1ccc(S(=O)(=O)c2ccccc2)nc1 | active: -151%
CCn1nc(C)c(CN2CCCCC2C(=O)Nc2ccc(Oc3cccnc3)cc2)c1C (centres undefined) | inactive: 0.494%
CNC(=S)NNC(=O)COc1ccc(C)c(C)c1 | inactive: -12.1%
COCCn1c(=S)[nH]c2cc(C(=O)N(CCO)Cc3ccccc3)ccc2c1=O | inactive: -2.57%
COc1cccc(Nc2ncnc3sccc23)c1 | inactive: -12.6%
O=C(CNC(=O)c1ccc(Cl)cc1)c1ccc(Cl)cc1 | inactive: 0%
Cc1ccc([C@@H]2CC=C(C(=O)O)[C@H](c3ccc(Cl)cc3)N2S(=O)(=O)c2ccccc2C)cc1 | active: -60.6%
Fc1ccc(CNc2ccc(N3CCN(Cc4ccccc4)CC3)cc2)cc1 | inconclusive: -45.4%
O=C(CCc1nnc(Cc2c[nH]c3ccccc23)o1)NCC1CC12CCCCC2 (centres undefined) | inconclusive: -41.3%

Structure (SMILES) | max response, negative = inhibition
COc1ccccc1/C=C/C=c1\sc2nc(=O)c(Cc3ccccc3)nn2c1=O | inconclusive: -35.7%
Cc1cc(C)c(C#N)c(SCC(=O)c2cccs2)n1 | inconclusive: -32.6%
CCc1nn(CC(=O)NCCCN(C)C2CCCCC2)c(=O)c2cc3occc3n12 | inconclusive: -31.5%
O=C(Nc1ccc(O)c(-c2nc3ccccc3s2)c1)c1cc(=O)c2ccccc2o1 | inactive: -11.6%
COC(=O)[C@@]1(C)[C@H]2C(=O)N(C)C(=O)[C@H]2[C@H]2CN=C(SCC(=O)c3ccccc3)N21 | inactive: 6.33%
O=C(CSc1nnc(SCc2ccccc2)s1)N/N=C/C=C\c1ccco1 | inactive: 4.1%
COc1cccc(NS(=O)(=O)c2ccc3[nH]cc(C(=O)N(C)Cc4ccco4)c(=O)c3c2)c1 | inactive: 14.3%
CCC(CCCO)CCC[C@H](C)CCC1OCCO1 (some centres undefined) | inconclusive: -45.3%
COc1ccc(CC(=O)Nc2cccc3ccccc23)cc1OC | inactive: 3.96%
COc1ccc(/C=N/NC(=O)CCSc2nc3ccccc3s2)cc1 | inactive: -10.4%
O=C(NCCCN1CCCC1)c1ccc2c(c1)N(Cc1ccccc1F)C(=O)c1ccccc1S2(=O)=O | inconclusive: -37.4%
CC(C)N(C(=O)[C@H]1CC(CC(=O)NCCc2ccccn2)C(=O)N2CCc3c([nH]c4ccccc34)[C@]12C)C(C)C (some centres undefined) | inconclusive: -48.2%
O=C(N/N=C/c1cccc2ccccc12)c1cc2ccccc2o1 | inconclusive: -49.4%
COc1cc(OC)cc(-n2nnnc2SCC(=O)NC2CCCC2)c1 | active: -71.3%
CC(=O)c1cn(CCOc2ccccc2C)c2ccccc12 | inactive: 29%
C=CCNC(=O)c1c(N)n(-c2ccc3c(c2)OCO3)c2nc3ccccc3nc12 | inactive: 8.32%
S=C1NC2=C(CCC/C2=C\c2ccc(Cl)cc2)C(c2ccc(Cl)cc2)N1 (centres undefined) | inconclusive: -34%
CC1CC(=O)c2c(cc3c(-c4c(O)cc(O)c5c(O)c6c(cc45)OC(C)CC6=O)c(O)cc(O)c3c2O)O1 (centres undefined) | inactive: -17.6%
COc1ccc(Nc2cc(C)c3cc([N+](=O)[O-])ccc3n2)cc1 | inconclusive: -47.8%
Cn1c(=O)c2c(-c3ccccc3)n(-c3ccccc3O)cc2n(C)c1=O | inactive: -17.1%
CCOC(=O)C1CCN(Cc2ccc(C(=O)OC)cc2)CC1 | active: -52.8%

Reference: PubChem BioAssay AID652054 (National Center for Advancing Translational Sciences (NCATS), 2013)
